Test results reported in patent US20220283187.
Construct, isoform or probe ends are uncertain for at least one entry. Where cells or extracts were used, other partners may take part.

The chains behind the UniProt entries cited, without tags or fusion partners. Residues count along the entry.
UniProt P08670, 2-466: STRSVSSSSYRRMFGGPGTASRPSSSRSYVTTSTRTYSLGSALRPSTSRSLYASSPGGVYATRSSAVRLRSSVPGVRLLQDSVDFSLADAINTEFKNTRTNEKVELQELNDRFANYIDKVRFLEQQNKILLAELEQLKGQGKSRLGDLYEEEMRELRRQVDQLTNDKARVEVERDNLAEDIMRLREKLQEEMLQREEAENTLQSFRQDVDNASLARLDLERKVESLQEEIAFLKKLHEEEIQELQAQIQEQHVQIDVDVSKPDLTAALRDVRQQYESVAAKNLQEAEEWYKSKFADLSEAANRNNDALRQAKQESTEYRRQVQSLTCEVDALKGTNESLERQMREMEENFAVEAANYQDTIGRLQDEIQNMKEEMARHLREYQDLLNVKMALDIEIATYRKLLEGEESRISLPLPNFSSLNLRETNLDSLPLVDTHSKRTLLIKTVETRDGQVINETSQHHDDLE

Target: Vimentin (VIM, cell surface) (Homo sapiens) (UniProt P08670)
Experiment: pull-down
Settings: PS (monothiophosphate at dA, from dATP(alphaS)); formaldehyde-crosslinked pulldown and MS from hyperphosphorylated SH-SY5Y, PBS 4 C; VIM described as likely target; co-staining with cell-surface VIM antibody; protein on the cell surface; protein details: endogenous on hyperphosphorylated SH-SY5Y cells; label: biotin (pulldown), Cy5 (staining); single-stranded DNA

CCCCCCACGGTCTCCGCTCCACAAGTTCAC [Tau_1 (DONGYBM)]
binding result: binds
